These are yes or no findings as the source states them, for the method shown. In cells and extracts the contact can be indirect. Some results given as binding are weak or reduced against the parent protein; the word gives no strength.
Tests used:
[1] = target: T1, Crk-associated substrate (p130cas) (human (endogenous in IB3-1)) (UniProt P56945); experiment: co-IP; IB3-1 cell lysate, endogenous proteins; protein A/G beads with antibody, 4°C overnight, washed three times with lysis buffer, immunoblot; which of the two was precipitated is not told
T1 sequence: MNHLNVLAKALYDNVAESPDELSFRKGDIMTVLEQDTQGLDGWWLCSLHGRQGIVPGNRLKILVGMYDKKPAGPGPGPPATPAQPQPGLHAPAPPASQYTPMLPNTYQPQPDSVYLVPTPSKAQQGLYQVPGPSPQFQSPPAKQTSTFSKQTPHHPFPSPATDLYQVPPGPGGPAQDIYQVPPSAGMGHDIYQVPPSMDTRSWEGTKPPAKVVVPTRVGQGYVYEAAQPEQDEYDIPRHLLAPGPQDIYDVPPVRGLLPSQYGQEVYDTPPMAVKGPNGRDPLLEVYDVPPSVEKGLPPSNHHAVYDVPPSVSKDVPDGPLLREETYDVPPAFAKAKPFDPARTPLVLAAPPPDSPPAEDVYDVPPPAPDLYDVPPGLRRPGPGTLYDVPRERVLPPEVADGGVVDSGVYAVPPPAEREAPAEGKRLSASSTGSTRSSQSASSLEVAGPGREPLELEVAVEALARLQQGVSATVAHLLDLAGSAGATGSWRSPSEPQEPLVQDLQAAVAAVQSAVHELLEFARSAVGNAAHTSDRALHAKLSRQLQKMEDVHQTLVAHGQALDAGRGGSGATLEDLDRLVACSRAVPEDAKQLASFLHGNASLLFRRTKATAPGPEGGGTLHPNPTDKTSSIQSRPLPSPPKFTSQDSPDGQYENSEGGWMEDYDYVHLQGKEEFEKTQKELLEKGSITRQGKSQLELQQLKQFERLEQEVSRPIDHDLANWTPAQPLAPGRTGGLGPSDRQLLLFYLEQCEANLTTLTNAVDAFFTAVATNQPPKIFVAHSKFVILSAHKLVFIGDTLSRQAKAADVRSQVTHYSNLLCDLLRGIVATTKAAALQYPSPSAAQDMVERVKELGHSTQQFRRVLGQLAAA

Amino acid sequences for entries named in this document (tags omitted).
UniProt P13569: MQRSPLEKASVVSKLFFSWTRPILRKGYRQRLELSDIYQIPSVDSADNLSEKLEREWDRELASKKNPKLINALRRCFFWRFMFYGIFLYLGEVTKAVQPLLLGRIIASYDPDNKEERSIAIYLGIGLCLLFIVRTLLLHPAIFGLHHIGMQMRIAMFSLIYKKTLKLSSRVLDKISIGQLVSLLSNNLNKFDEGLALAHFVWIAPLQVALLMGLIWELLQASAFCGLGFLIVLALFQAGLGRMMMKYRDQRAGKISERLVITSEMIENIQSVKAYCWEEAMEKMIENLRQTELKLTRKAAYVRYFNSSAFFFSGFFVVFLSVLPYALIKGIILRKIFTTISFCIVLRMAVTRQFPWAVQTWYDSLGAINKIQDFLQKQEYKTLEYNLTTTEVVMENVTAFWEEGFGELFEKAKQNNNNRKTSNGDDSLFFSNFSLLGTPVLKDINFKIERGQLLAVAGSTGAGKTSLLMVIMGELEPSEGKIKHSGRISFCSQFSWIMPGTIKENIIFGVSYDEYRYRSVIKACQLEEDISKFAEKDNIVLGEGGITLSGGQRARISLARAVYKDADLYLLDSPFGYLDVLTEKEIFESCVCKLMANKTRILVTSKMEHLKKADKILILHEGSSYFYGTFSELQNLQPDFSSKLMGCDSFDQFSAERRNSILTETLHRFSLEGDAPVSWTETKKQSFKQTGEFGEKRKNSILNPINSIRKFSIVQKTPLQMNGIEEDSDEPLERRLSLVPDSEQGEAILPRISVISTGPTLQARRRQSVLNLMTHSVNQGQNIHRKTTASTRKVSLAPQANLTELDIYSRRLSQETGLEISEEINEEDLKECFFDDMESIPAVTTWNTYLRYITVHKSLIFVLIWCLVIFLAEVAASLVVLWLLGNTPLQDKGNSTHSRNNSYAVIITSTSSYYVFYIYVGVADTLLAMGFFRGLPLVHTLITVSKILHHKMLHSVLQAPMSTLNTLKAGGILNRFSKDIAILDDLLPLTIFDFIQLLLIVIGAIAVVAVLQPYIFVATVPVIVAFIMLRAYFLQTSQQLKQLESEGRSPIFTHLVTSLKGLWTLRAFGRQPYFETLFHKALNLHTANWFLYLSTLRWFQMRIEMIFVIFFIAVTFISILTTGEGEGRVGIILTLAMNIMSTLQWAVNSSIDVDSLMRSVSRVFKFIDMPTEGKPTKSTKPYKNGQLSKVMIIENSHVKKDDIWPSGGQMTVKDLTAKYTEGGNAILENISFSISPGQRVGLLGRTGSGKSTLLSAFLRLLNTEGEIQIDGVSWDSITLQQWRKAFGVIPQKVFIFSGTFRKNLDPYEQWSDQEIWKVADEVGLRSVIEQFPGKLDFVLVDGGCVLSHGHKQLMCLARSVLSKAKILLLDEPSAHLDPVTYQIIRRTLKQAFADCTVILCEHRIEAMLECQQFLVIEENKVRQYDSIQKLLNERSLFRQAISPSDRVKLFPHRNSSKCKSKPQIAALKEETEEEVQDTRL
UniProt Q14289: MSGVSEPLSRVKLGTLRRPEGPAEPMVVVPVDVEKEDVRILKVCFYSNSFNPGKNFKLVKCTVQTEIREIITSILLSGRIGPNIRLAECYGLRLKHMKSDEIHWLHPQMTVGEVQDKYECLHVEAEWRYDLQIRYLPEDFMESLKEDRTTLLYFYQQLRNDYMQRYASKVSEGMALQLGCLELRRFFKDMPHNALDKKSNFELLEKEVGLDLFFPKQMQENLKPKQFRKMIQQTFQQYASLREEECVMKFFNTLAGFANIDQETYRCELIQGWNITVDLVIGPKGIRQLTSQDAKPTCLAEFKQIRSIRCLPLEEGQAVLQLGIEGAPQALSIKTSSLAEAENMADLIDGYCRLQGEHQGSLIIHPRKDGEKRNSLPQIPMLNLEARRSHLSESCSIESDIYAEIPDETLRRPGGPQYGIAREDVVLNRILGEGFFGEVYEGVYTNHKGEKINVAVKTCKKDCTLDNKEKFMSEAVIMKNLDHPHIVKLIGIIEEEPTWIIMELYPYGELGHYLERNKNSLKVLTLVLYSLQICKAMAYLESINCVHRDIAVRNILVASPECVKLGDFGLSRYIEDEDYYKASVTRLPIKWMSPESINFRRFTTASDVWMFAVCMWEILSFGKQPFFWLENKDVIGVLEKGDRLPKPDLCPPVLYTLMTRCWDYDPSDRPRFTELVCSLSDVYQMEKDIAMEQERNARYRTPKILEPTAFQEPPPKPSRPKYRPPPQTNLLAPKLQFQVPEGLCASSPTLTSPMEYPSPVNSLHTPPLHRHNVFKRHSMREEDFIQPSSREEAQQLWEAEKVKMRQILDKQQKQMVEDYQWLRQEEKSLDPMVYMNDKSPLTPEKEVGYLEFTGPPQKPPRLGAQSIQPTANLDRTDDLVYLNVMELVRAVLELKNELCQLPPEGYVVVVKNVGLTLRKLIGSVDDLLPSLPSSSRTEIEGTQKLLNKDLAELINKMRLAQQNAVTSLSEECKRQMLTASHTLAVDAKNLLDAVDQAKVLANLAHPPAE

[2] = target: Cystic Fibrosis Transmembrane Conductance Regulator (CFTR), endogenous wild type (human (endogenous in Calu-3)) (UniProt P13569); experiment: co-IP; lysates of IB3-1 cells transiently transfected with wt-CFTR and of Calu-3 cells (endogenous CFTR); immunoprecipitated with CFTR antibody and protein A/G beads, 4°C overnight; immunoblotted with PYK2 antibody
[3] = target: wt-CFTR-GFP (Cystic Fibrosis Transmembrane Conductance Regulator, wild type, GFP-tagged) (human) (UniProt P13569); experiment: as above

Measured: binding

Proline-rich tyrosine kinase 2 (PYK2) (from UniProt Q14289 1-1009)
binds: all assays above

Source: paper PMC3135607
